Test results reported in publication PMC7819943, “Rice protein-binding microarrays: a tool to detect cis-acting elements near promoter regions in rice”.
The other results are listed elsewhere or left out.

The chains behind the UniProt entries cited, without tags or fusion partners.
UniProt Q0JBA9, entry or part of it: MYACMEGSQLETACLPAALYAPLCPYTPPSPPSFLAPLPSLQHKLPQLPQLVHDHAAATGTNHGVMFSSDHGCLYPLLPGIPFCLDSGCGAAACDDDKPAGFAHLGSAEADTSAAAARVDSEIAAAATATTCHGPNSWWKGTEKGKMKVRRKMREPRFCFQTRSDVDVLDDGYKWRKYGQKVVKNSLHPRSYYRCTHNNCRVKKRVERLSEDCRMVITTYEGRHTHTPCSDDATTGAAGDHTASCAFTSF

Biological target: OsWRKY34 (Oryza sativa, UniProt Q0JBA9 1-250)
Assay: protein-binding microarray (RPBM); PBS, 2% BSA, 51.3 ng/ul salmon testes DNA, 50 uM zinc acetate, 200 nM TF, 25 C, 1 h; high values mean tight binding
Conditions: protein: recombinant; tags: N-terminal polyhistidine and DsRed monomer fusion (pET32a); label: CyDye5-dUTP incorporated in the synthesized complementary strand; 3' TTTTT single-stranded linker to array surface; dsDNA, one strand shown
Outline: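 In PBS with 2% BSA, salmon testes DNA and 50 µM zinc acetate, 200 nM protein was incubated on a custom Agilent array at 25 °C for 1 h and then washed off. The array had been made double-stranded by primer extension with Cy5-dUTP and blocked with 2% BSA. The proteins were transcription factors fused N-terminally to polyhistidine and DsRed, expressed in E. coli BL21-CodonPlus and purified on Ni–NTA. The binding signal is per-feature fluorescence intensity (arbitrary units) from an Axon 4000B scanner.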

Sequence | binding signal
TGAGTGACATCTAAAATCTCGCATTCCTTGCATCTATCCCCGGAGTCACCTAGTGCAG | 8190 fluorescence intensity (a.u.)
AGTCCCCGACCTTTCCGTCCGTTCAGCGCCCATCCCATTGCGGAGTCACCTAGTGCAG | 8150 fluorescence intensity (a.u.)
GGAGGGAGTATATTATATGCTTGTCCTAGGCTGACACGCCCGGAGTCACCTAGTGCAG | 8760 fluorescence intensity (a.u.)
TTGGATCACTCTGCCTTGTGACTCTTGCCATTTCTACTATCGGAGTCACCTAGTGCAG | 8430 fluorescence intensity (a.u.)
TGTGCATTTCTTGAAATGTTTTTTTGGGGTATAATTTCACCGGAGTCACCTAGTGCAG | 13200 fluorescence intensity (a.u.)
CTCCTCTCACTCGTCTCGTCCACGGCGTAATCGCCTTGCGCGGAGTCACCTAGTGCAG | 9790 fluorescence intensity (a.u.)
CTTTCATCCGTCCTTATAAGTCCAGATATAACATATCATACGGAGTCACCTAGTGCAG | 8230 fluorescence intensity (a.u.)
GATCTCTTTTTCTTTCTTTGGCCGCTGTAAAATAGCGAAGCGGAGTCACCTAGTGCAG | 9910 fluorescence intensity (a.u.)
TCACCGGCCTCCTCCTCCTTCGCCGCTTGCTCCTACCCCTCGGAGTCACCTAGTGCAG | 9380 fluorescence intensity (a.u.)
CCCTATCAATGACATGTGGGCCCTTATATATCTATGATATCGGAGTCACCTAGTGCAG | 8590 fluorescence intensity (a.u.)
CGTTTTTGCGCGGTGGCACTTCACTGTCACACATGATGACCGGAGTCACCTAGTGCAG | 8090 fluorescence intensity (a.u.)
GTAGTCCCATGGTTTGCTTGGCTCATAATCATCTTTTTTTCGGAGTCACCTAGTGCAG | 9160 fluorescence intensity (a.u.)
TCTGCTTTAATCAGCCTAGTTCTCTGGACAACCTCCTGCTCGGAGTCACCTAGTGCAG | 9340 fluorescence intensity (a.u.)
CAACGCCTCTCTCTCTCCATCTCGCCGCGTCCTCCTCCTCCGGAGTCACCTAGTGCAG | 9130 fluorescence intensity (a.u.)
GACTGACTCGGTTTCCATCAACAGTACATCTTTATTTTTCCGGAGTCACCTAGTGCAG | 9680 fluorescence intensity (a.u.)
CTACTTAAACCCATCATCCATCTCCTCCTACAACTACACACGGAGTCACCTAGTGCAG | 8760 fluorescence intensity (a.u.)
TCGTCGCCTCCGCCTCGTGAGCTCCACTCACCTACCCCACCGGAGTCACCTAGTGCAG | 12200 fluorescence intensity (a.u.)
GCGTTTCAGTCTATTTGTCGGCGATTTTTCGCGCTTGCATCGGAGTCACCTAGTGCAG | 11100 fluorescence intensity (a.u.)
GCAGCGGCGTCGGCTTGGTTCGGGGAGGGGAGCGGAGTACCGGAGTCACCTAGTGCAG | 10700 fluorescence intensity (a.u.)
TTTTTCCCTGAAGCTCCTGTGTGTCATCTCTCTTTTTCTTCGGAGTCACCTAGTGCAG | 11100 fluorescence intensity (a.u.)
ATAGTGGTGGTGGTGGGTGGGAGCAGAAGCAGAAGCAGGACGGAGTCACCTAGTGCAG | 10900 fluorescence intensity (a.u.)

As a short view, some entries already given:
Sequence | binding signal
GCAGCGGCGTCGGCTTGGTTCGGGGAGGGGAGCGGAGTACCGGAGTCACCTAGTGCAG | 10700 fluorescence intensity (a.u.)
TTTTTCCCTGAAGCTCCTGTGTGTCATCTCTCTTTTTCTTCGGAGTCACCTAGTGCAG | 11100 fluorescence intensity (a.u.)
ATAGTGGTGGTGGTGGGTGGGAGCAGAAGCAGAAGCAGGACGGAGTCACCTAGTGCAG | 10900 fluorescence intensity (a.u.)

Later entries:

Sequence | binding signal
GGCAGAACATTTTCTACGACTATTTTTTCTAGATACTTTTCGGAGTCACCTAGTGCAG | 10700 fluorescence intensity (a.u.)
TTCTTTTTCTTTTTTCTCCTTGCTGTCTCAATCCTGATATCGGAGTCACCTAGTGCAG | 9000 fluorescence intensity (a.u.)
TCTAGGTTTAGGGTTCCATTCATTTCTAGGTTGATTCTTCCGGAGTCACCTAGTGCAG | 10000 fluorescence intensity (a.u.)
CCACCTCACACTCCATTCGCGAGGCCCACGGCCCAAGTGACGGAGTCACCTAGTGCAG | 9570 fluorescence intensity (a.u.)
GGGTCGTCAGGATTTTCACTCTTGATGGGTTCAAATTTTGCGGAGTCACCTAGTGCAG | 9650 fluorescence intensity (a.u.)
TTTTGCGTGCGGGCGGTATAACTTGACCGCGGTCCACTTACGGAGTCACCTAGTGCAG | 9630 fluorescence intensity (a.u.)
TGTGGTGTCTAAGGTGCCATCGCATGGAAGGAAGTTGTGTCGGAGTCACCTAGTGCAG | 8070 fluorescence intensity (a.u.)
AAGACTTTCTAGCATTCCTTACATTCATATATATGTTAATCGGAGTCACCTAGTGCAG | 8580 fluorescence intensity (a.u.)
TAAATTTGTCTTGGGTTAAAAATGTTATTGTATTTTTCTACGGAGTCACCTAGTGCAG | 8620 fluorescence intensity (a.u.)
AACATTGGCAAAATGTCCATTCTTTTCACCTGCTGCATGCCGGAGTCACCTAGTGCAG | 12100 fluorescence intensity (a.u.)
AATTTATCCATTTTTTACTCCATTCCATGGTACTTATTTACGGAGTCACCTAGTGCAG | 12200 fluorescence intensity (a.u.)
GCTCGTCCGTGCACATCCGCTGCAATGCCACCGTCAAGTACGGAGTCACCTAGTGCAG | 9940 fluorescence intensity (a.u.)
CGTTTTTCTTTACACCCACGCAACCACCACCCAACCTCAACGGAGTCACCTAGTGCAG | 9000 fluorescence intensity (a.u.)
TCGCTCCGTGCTCGACTCGTGTCTTCCACCTCATTCTCGACGGAGTCACCTAGTGCAG | 9820 fluorescence intensity (a.u.)
TTCACCCACCGAACAATCACCAGCCGTTCGATCGCGTTCCCGGAGTCACCTAGTGCAG | 9180 fluorescence intensity (a.u.)
CATTGACTTTTTCTCACATATTTGTCCATTCGTCTTATTACGGAGTCACCTAGTGCAG | 16100 fluorescence intensity (a.u.)
CGATTTGATTGGGGTTTTTTGGTTTTTTCGATGGACAGGCCGGAGTCACCTAGTGCAG | 9210 fluorescence intensity (a.u.)
CAGTCCCCAAGAAATATCTGTCGTTGACAAGTCAACGCCCCGGAGTCACCTAGTGCAG | 9250 fluorescence intensity (a.u.)
TTGTCTTGAGACTTATTTGCACCTCACTCATCTATATGCACGGAGTCACCTAGTGCAG | 8680 fluorescence intensity (a.u.)
GCAATGACCAACAACCCTATAAATTTCACTCCTTTTTGGCCGGAGTCACCTAGTGCAG | 9280 fluorescence intensity (a.u.)
CTCGATCTTTTCTGTTCGGTCTTTTTCTGCCCACCCCTGCCGGAGTCACCTAGTGCAG | 8540 fluorescence intensity (a.u.)

Rewritten comma-delimited: part of the list above.
Sequence,binding signal
TGTGGTGTCTAAGGTGCCATCGCATGGAAGGAAGTTGTGTCGGAGTCACCTAGTGCAG,8070 fluorescence intensity (a.u.)
AAGACTTTCTAGCATTCCTTACATTCATATATATGTTAATCGGAGTCACCTAGTGCAG,8580 fluorescence intensity (a.u.)
TAAATTTGTCTTGGGTTAAAAATGTTATTGTATTTTTCTACGGAGTCACCTAGTGCAG,8620 fluorescence intensity (a.u.)
AACATTGGCAAAATGTCCATTCTTTTCACCTGCTGCATGCCGGAGTCACCTAGTGCAG,12100 fluorescence intensity (a.u.)

Additional results follow.

Sequence | binding signal
TTTCAATATCTGGGTAGGGGCAGGTAATTGGGAGGGAATACGGAGTCACCTAGTGCAG | 11600 fluorescence intensity (a.u.)
GTTCGTCAACAAGCCACGGTCGTCTCAATTCCTTTTTCGTCGGAGTCACCTAGTGCAG | 10800 fluorescence intensity (a.u.)
CACACCACACACTGATGCAACGGCACTTAAGCGCACGAAGCGGAGTCACCTAGTGCAG | 8060 fluorescence intensity (a.u.)
TTTCTTTGTCTCCTGTCTCACGCATTTGGTCCCGACTGATCGGAGTCACCTAGTGCAG | 8610 fluorescence intensity (a.u.)
TTTTATTTTACTCCTAACCCCTATCTCTACTATTATAAAACGGAGTCACCTAGTGCAG | 8790 fluorescence intensity (a.u.)
GGGGTGGGTATGCATCTGAGTACTCTCATAACGGCCCAGCCGGAGTCACCTAGTGCAG | 10300 fluorescence intensity (a.u.)
ACCCTTAACTCCTACAGTCGATCGAATTATCCTCTTCAACCGGAGTCACCTAGTGCAG | 8620 fluorescence intensity (a.u.)
TGTGTGTGCGTGTCTATGGAACCATTGTACTAAATTTGTTCGGAGTCACCTAGTGCAG | 9510 fluorescence intensity (a.u.)
GCGCATGGCTTTTACTTCATGAATGTTTAGTGTACCAAATCGGAGTCACCTAGTGCAG | 9550 fluorescence intensity (a.u.)
TATTGACAATCGACACTTTTTTTTTCCAATTTTCCTTAAACGGAGTCACCTAGTGCAG | 8500 fluorescence intensity (a.u.)
ACCGAAATTTCCAACCCTGGTCGCAGCAGCTGTTTTACCGCGGAGTCACCTAGTGCAG | 8270 fluorescence intensity (a.u.)
GGGTGAGCTTCTTCCACGCCCGCCGGCGTCCATCTCGCGTCGGAGTCACCTAGTGCAG | 9030 fluorescence intensity (a.u.)
CCACCACCGCCACCAACGCTCCCCTCCGCCTCGTCCCCATCGGAGTCACCTAGTGCAG | 8080 fluorescence intensity (a.u.)
CTCTTCTCTCTTTCTCTTGTGCGAGCACACACATTTTCCTCGGAGTCACCTAGTGCAG | 9440 fluorescence intensity (a.u.)
TTTTTAAACATGTTTGACCACTCGTCTTATTCAAAAACTTCGGAGTCACCTAGTGCAG | 9180 fluorescence intensity (a.u.)
GTGGTTGATACTAGTGTTATTATTGCTTATAGATACAATTCGGAGTCACCTAGTGCAG | 8350 fluorescence intensity (a.u.)
CGCCCACTCCCCTACCACGACCAGCCCGCACCGCACACGCCGGAGTCACCTAGTGCAG | 9560 fluorescence intensity (a.u.)
CCGTCTTCGCCGTCCCGGCCACTGGCAGCCCCGCGGTCGCCGGAGTCACCTAGTGCAG | 9020 fluorescence intensity (a.u.)
GTAGTACGGGGATTTTTTTTAACTTTTAATTTTATTTATTCGGAGTCACCTAGTGCAG | 8450 fluorescence intensity (a.u.)
TTCAGTTTTTGCTTACAACGTTTGACCACTCGTCTTATTCCGGAGTCACCTAGTGCAG | 11900 fluorescence intensity (a.u.)
ACTACTCGTATATCTTTCAGTTAACATGACCATTGCACCACGGAGTCACCTAGTGCAG | 9660 fluorescence intensity (a.u.)

Sequence | binding signal
ATTTTTTTATGATTAGTATTTTTATTGTTGTTAGATGATACGGAGTCACCTAGTGCAG | 11900 fluorescence intensity (a.u.)
TTCCTGAACAGCAATTATCACTTCATCTCCTTTGTGGGATCGGAGTCACCTAGTGCAG | 8840 fluorescence intensity (a.u.)
GATTGTCTTGATTTGTTTTACTAGGAGGGTTCACATTTCCCGGAGTCACCTAGTGCAG | 11000 fluorescence intensity (a.u.)
CTCCACACCTGACACCACGCGGGCTGCCTCCATCGTCATCCGGAGTCACCTAGTGCAG | 8790 fluorescence intensity (a.u.)
GAGCCCTCCGCCGCCGCCAGCTCGCCCTTCGCCGAGCCCACGGAGTCACCTAGTGCAG | 8340 fluorescence intensity (a.u.)
CTCCCATCTCTCATTCTCACCATTCACCAATGCAGCAACTCGGAGTCACCTAGTGCAG | 10800 fluorescence intensity (a.u.)
GCTCTGCTTTGTTTTCAGTTGTAATTTGTAGGCTCAAACTCGGAGTCACCTAGTGCAG | 8450 fluorescence intensity (a.u.)
GACCGAGAGCAGGCGACGGGGTGGGTGGAGGTAGTGAGAACGGAGTCACCTAGTGCAG | 9200 fluorescence intensity (a.u.)
GGGATCGAGCTAGTTGGGGTTAGCGGTGTGGAAGGGTCGACGGAGTCACCTAGTGCAG | 9120 fluorescence intensity (a.u.)
ATCTTTCTCTAACACCGTACACCTTTTTTTCTCTATCTTACGGAGTCACCTAGTGCAG | 10400 fluorescence intensity (a.u.)
CTCTGTGCTTAAGTTGAGTTCAATTTCATTTCCAATCACACGGAGTCACCTAGTGCAG | 9300 fluorescence intensity (a.u.)
TCCCTACTCCCTCACCGCGCGGCCGCCGCCCCACCCACGCCGGAGTCACCTAGTGCAG | 9330 fluorescence intensity (a.u.)
GTACACTCCTCTCAGCCGGTCTATCAATTCCCCTTGGTGTCGGAGTCACCTAGTGCAG | 8760 fluorescence intensity (a.u.)
CGAGATCTCCCTCCTTCACCCGCCACCTTCTCTCTTCTCTCGGAGTCACCTAGTGCAG | 10600 fluorescence intensity (a.u.)
TTAGTTTGTACTGTGTTCTGCGTTCTTATGTACAGGGCCTCGGAGTCACCTAGTGCAG | 9480 fluorescence intensity (a.u.)
GGATACCTCATATGTTGTGTGTCAATGTGTTTGTTATTCTCGGAGTCACCTAGTGCAG | 11800 fluorescence intensity (a.u.)
ACGTCTCATCGGCACATGCGTGGGCCCACCCATCCATCCCCGGAGTCACCTAGTGCAG | 10800 fluorescence intensity (a.u.)
CCAAATCTTTCAGTTAATGTTATTTTCCCTTTCAATTTATCGGAGTCACCTAGTGCAG | 8090 fluorescence intensity (a.u.)
TGTTTTCTGTTCTTTGTTGACTTTAAGTCGCTAAATTTTGCGGAGTCACCTAGTGCAG | 11500 fluorescence intensity (a.u.)
TAGTAGGGTTTTTTCGCTTGCAACTCCTGCGGCTCGAACACGGAGTCACCTAGTGCAG | 9090 fluorescence intensity (a.u.)
TGGGAATACGATCTCTTGGGTTTTGTGCTGTTACTAGCTCCGGAGTCACCTAGTGCAG | 9300 fluorescence intensity (a.u.)
